Data on one substance can be found in PMC11151566.

The chains behind the UniProt entries cited, without tags or fusion partners.
UniProt Q92830: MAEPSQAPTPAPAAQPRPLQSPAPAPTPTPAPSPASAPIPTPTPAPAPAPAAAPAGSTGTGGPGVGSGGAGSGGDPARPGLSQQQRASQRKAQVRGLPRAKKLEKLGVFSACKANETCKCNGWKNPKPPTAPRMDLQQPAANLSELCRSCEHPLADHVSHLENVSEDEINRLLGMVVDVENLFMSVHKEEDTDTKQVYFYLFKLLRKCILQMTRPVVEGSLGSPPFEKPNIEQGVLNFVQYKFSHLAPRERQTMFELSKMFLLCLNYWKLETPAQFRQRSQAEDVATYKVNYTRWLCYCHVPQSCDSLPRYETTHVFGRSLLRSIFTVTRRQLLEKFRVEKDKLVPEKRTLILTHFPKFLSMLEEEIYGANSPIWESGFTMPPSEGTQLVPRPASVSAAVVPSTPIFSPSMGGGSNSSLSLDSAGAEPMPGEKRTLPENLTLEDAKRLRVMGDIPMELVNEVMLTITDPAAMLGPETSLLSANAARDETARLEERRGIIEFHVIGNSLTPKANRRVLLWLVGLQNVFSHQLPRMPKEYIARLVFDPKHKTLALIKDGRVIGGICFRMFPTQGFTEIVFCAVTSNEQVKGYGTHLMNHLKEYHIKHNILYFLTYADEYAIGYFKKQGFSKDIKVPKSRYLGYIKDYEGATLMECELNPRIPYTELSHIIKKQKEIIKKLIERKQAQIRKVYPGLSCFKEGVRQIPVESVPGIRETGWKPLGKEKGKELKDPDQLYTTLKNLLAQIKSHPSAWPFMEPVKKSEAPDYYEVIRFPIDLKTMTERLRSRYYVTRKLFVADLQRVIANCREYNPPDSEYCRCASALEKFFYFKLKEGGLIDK
UniProt P18669: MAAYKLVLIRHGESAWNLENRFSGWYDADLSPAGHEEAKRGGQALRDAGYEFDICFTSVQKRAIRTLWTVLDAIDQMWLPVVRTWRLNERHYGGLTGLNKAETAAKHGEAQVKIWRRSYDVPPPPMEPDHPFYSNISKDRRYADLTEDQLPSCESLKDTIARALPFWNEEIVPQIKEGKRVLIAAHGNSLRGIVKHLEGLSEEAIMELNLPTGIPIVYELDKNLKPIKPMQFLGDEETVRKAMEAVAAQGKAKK

For the test, the target named is lysine acetyltransferase (KAT) 2 A (human (endogenous in SNU182 and Huh7)) (UniProt Q92830). Kind of test: co-IP; SNU182 and Huh7 cells lysed in RIPA buffer with protease inhibitors; KAT2A, PGAM1 or IgG antibody (2 µg) overnight at 4 °C, protein A agarose beads, western blot. Background: In western blotting, separated proteins are transferred to a membrane and probed.

Results are given in words; binding and its absence hold for the method and conditions named. Binding seen in cells or lysates may run through a third protein. Some binding calls cover weakened binding; strength is not graded here.

Regarding “phosphoglycerate mutase 1 (PGAM1) (from UniProt P18669 1-254) (enzyme)”, the binding result is on record as “binds”.
